The supplement of paper PMC10849652
Some of the results follow.

The chains behind the UniProt entries cited, without tags or fusion partners. Where a name states a change or a piece, a line headed by the entry shows the natural chain unless it says otherwise.
UniProt P34947, whole entry, looked up: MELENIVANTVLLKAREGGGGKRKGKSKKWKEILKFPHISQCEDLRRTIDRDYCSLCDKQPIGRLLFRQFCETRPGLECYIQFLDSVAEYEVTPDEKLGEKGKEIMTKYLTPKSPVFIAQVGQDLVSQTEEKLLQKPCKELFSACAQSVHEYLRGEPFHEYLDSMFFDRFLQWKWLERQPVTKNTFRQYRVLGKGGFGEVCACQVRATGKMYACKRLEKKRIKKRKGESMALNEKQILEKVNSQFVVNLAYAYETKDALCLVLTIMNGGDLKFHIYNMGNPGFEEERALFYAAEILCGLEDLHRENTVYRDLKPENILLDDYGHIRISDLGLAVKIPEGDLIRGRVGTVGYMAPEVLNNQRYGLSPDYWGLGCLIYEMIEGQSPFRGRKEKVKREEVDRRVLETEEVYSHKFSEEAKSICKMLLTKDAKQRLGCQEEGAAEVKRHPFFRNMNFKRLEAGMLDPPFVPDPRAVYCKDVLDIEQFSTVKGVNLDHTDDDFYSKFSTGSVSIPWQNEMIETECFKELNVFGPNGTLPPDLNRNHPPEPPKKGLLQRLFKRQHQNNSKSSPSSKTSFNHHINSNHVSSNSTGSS
UniProt Q5JVS0: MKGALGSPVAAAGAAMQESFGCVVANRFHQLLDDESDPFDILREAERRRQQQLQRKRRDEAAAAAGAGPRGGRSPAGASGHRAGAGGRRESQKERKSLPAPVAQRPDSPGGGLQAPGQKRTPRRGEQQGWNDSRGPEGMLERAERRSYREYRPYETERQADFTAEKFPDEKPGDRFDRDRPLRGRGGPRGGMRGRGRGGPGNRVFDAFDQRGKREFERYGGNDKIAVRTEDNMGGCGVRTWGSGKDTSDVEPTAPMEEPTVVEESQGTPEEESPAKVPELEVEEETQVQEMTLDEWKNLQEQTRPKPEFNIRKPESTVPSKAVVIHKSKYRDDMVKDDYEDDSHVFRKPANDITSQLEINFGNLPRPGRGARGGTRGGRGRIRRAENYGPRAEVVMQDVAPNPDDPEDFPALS
UniProt P07305, whole entry, looked up: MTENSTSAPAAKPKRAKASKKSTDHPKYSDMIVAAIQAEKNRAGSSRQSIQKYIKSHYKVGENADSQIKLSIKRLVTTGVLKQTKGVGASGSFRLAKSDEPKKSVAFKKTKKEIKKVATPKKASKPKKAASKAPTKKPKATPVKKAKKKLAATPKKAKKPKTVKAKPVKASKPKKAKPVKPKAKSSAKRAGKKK
UniProt Q8TD30: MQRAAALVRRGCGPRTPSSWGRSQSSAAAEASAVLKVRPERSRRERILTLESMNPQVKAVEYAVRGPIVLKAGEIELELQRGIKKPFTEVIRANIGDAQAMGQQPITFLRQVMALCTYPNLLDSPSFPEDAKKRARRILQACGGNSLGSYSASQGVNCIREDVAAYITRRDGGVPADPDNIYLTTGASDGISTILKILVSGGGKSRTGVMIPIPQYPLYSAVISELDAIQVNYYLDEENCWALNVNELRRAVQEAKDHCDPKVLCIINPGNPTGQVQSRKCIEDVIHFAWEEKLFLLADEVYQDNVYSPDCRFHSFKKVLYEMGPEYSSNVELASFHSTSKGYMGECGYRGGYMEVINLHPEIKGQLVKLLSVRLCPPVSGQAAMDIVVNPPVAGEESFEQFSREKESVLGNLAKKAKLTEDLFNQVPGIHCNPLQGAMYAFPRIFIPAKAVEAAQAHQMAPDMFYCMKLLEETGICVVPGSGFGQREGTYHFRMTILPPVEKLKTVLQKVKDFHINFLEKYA
UniProt P51610: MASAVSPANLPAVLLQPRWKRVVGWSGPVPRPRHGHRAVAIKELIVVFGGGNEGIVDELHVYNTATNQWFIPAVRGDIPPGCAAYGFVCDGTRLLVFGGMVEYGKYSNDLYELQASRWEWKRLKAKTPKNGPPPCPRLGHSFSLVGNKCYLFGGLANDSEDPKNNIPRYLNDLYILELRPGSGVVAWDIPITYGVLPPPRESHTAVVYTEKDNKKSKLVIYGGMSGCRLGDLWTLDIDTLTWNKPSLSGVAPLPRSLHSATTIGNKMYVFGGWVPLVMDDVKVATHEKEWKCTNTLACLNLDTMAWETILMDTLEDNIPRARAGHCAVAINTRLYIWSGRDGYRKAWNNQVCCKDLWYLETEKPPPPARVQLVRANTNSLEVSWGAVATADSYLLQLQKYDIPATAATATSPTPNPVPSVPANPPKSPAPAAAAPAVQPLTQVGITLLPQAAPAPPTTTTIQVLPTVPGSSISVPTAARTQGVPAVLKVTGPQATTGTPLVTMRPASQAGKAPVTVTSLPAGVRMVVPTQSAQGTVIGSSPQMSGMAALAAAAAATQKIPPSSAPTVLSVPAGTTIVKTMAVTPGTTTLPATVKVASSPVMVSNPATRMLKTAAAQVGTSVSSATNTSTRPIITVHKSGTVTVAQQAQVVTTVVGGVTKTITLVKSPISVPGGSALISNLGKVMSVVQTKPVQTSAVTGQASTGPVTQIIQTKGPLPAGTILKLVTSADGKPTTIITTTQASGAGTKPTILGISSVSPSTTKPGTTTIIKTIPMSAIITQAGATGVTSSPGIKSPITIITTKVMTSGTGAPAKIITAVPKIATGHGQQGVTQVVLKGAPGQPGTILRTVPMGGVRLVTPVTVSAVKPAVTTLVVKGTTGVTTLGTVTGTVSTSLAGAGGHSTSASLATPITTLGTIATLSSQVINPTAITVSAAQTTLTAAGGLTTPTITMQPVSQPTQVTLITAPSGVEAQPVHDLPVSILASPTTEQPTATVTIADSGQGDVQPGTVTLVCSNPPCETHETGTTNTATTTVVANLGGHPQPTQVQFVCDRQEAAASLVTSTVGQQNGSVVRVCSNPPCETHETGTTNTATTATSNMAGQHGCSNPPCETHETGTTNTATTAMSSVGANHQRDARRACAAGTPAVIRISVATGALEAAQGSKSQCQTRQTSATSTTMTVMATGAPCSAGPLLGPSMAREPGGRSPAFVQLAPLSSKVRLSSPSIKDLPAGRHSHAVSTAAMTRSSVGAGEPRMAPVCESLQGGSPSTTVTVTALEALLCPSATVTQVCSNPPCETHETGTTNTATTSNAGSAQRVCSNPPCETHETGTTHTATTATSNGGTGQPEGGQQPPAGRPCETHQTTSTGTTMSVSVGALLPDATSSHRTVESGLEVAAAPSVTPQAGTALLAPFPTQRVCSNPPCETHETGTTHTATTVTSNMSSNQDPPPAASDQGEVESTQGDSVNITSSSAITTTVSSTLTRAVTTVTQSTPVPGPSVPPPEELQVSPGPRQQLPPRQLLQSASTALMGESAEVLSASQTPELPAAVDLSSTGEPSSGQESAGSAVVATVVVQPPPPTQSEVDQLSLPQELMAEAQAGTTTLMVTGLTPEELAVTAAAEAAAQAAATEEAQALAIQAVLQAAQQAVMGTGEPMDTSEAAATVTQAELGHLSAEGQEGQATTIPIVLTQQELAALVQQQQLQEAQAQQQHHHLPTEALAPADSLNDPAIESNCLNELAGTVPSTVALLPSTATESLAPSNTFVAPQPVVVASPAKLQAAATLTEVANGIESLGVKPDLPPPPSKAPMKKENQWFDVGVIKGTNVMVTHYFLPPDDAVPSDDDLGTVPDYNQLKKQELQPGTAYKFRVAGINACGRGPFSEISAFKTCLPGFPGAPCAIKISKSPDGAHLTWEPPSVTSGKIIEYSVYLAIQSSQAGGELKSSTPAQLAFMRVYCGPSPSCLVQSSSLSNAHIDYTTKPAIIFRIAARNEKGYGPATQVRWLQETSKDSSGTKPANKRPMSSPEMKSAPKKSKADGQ
UniProt P42357: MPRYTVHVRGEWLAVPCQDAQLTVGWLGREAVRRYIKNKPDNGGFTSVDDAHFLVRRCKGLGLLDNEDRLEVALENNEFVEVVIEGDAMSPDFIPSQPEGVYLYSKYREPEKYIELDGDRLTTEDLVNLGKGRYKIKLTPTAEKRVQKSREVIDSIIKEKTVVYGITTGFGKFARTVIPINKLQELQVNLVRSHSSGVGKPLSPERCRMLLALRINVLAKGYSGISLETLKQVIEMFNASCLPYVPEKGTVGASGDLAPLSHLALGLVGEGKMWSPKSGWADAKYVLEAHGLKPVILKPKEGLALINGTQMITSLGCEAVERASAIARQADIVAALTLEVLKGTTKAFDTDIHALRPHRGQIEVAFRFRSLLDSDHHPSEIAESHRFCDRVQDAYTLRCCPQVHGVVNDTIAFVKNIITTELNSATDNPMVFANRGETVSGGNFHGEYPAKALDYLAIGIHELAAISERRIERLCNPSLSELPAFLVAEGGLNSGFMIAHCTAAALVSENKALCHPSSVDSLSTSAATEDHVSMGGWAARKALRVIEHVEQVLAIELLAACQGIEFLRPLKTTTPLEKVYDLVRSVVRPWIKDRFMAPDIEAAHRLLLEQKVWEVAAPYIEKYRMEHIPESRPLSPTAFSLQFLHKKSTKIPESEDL
UniProt Q9UBP9: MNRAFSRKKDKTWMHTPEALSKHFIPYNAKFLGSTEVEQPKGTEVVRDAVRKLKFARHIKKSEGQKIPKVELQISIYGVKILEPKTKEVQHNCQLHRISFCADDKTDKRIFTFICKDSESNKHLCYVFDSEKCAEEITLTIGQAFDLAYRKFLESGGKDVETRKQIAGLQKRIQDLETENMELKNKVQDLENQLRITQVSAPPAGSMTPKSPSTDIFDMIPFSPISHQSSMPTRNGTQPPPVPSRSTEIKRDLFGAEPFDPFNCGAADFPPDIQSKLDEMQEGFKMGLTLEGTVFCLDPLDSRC
UniProt Q96CP6, whole entry, looked up: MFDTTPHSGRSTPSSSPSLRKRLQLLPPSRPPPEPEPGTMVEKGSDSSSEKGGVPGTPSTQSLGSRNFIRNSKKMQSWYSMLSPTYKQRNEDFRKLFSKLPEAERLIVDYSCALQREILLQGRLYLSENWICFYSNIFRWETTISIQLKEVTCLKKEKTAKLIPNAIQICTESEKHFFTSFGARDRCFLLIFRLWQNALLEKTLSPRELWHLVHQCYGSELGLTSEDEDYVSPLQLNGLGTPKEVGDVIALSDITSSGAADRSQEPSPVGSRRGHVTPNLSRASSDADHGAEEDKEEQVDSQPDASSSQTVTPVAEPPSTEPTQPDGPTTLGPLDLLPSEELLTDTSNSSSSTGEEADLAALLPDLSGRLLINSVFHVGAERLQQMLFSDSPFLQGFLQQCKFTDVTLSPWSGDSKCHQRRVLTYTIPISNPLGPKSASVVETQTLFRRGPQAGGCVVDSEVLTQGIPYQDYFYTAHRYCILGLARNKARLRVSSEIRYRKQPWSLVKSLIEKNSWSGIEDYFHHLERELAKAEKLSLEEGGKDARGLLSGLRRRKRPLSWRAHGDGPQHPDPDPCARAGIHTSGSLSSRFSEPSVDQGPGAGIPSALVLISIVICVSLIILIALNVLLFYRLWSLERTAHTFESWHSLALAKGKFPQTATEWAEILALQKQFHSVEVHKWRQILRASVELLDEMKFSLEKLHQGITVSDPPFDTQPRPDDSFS
UniProt Q9Y4H4: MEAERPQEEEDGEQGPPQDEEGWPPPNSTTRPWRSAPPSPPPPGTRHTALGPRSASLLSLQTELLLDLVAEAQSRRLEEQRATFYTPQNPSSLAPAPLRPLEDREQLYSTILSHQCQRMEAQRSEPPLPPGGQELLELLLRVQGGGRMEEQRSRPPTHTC
UniProt P00390: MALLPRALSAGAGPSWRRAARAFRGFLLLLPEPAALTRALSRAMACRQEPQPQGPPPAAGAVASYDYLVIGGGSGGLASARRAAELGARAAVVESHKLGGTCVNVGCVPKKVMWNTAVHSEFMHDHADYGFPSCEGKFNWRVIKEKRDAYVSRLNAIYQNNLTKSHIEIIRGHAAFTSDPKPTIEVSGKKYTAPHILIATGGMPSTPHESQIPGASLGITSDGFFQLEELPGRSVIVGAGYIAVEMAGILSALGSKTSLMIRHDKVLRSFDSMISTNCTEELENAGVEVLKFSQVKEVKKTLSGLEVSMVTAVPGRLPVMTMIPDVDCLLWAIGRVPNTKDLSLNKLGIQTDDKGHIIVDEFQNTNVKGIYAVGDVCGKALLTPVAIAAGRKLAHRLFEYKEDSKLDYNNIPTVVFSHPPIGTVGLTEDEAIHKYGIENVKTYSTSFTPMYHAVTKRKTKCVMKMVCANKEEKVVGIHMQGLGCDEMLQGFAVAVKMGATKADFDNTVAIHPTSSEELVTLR
UniProt Q6P1K8: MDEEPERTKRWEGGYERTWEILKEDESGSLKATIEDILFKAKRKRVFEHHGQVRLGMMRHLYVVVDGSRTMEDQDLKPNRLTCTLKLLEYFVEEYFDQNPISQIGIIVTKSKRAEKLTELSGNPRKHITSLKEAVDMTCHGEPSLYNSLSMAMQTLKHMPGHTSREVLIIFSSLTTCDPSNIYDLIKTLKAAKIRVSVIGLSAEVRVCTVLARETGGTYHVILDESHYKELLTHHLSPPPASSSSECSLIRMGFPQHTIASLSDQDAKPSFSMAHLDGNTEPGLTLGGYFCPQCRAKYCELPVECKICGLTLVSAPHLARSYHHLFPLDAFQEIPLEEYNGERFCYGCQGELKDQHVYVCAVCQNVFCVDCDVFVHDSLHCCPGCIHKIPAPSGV

How the values were obtained:
Experiment in all cases: log2 fold change, soluble protein after heating vs DMSO (PISA); higher = thermal stabilisation; K562 lysate, 10 uM; active = over 0.2 and 3.5 SD of the protein, either way, in both replicates (recomputed)
[1] = compound: CCCS(=O)(=O)Nc1ccc(F)c(C(=O)c2c[nH]c3ncc(Cl)cc23)c1F
Summary of the method: (§1)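 A 30 min treatment with 10 μM compound was applied to crude K562 extract at 1 mg/mL protein in PBS pH 7.4 with 1 mM MgCl2. Heating for 3 min spanned 48°C-58°C, after which aliquots were pooled, adjusted to 0.5% NP-40 at 4°C and spun at 21,000xg for 90 min. TMTpro 16plex LC-MS/MS of the supernatant, with channel sums equalised, gave values recorded as log-two fold change in thermal stability against solvent controls, from duplicates.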

barasertib = compound: CCN(CCCOc1ccc2c(Nc3cc(CC(=O)Nc4cccc(F)c4)[nH]n3)ncnc2c1)CCOP(=O)(O)O [barasertib]
Summary of the method: as §1

[2] = compound: CC[C@@H]1C(=O)N(C)c2cnc(Nc3ccc(C(=O)NC4CCN(C)CC4)cc3OC)nc2N1C1CCCC1
Summary of the method: as §1

volasertib = compound: CC[C@@H]1C(=O)N(C)c2cnc(Nc3ccc(C(=O)N[C@H]4CC[C@H](N5CCN(CC6CC6)CC5)CC4)cc3OC)nc2N1C(C)C [volasertib]
Summary of the method: as §1

[3] = compound: CCn1c(C(=O)N(C2CC2)C2CC2)cc2c3c(ncn3C)c(Nc3cc(C)n(C)n3)nc21
Summary of the method: as §1

saracatinib = compound: CN1CCN(CCOc2cc(OC3CCOCC3)c3c(Nc4c(Cl)ccc5c4OCO5)ncnc3c2)CC1 [saracatinib]
Summary of the method: as §1

Tubastatin A = compound: CN1CCc2c(c3ccccc3n2Cc2ccc(C(=O)NO)cc2)C1 [Tubastatin A]
Summary of the method: as §1

[4] = compound: CNC(=O)C1=CC=CC=C1NC2=NC(=NC=C2Cl)NC3=C(C=C(C=C3)N4CCOCC4)OC
Summary of the method: as §1

[5] = compound: CNc1nc(-c2ccc3c(N)n[nH]c3c2)cc(N2C[C@@H](C(=O)NC3CCCCC3)CC[C@H]2C)n1
Summary of the method: as §1

encorafenib = compound: COC(=O)N[C@@H](C)CNc1nccc(-c2cn(C(C)C)nc2-c2cc(Cl)cc(NS(C)(=O)=O)c2F)n1 [encorafenib]
Summary of the method: as §1

[6] = compound: COC(=O)[C@H](CCSC)NC(=O)C1=C(C=C(C=C1)NC[C@H](CS)N)C2=CC=CC=C2
Summary of the method: as §1

alisertib = compound: COc1cc(Nc2ncc3c(n2)-c2ccc(Cl)cc2C(c2c(F)cccc2OC)=NC3)ccc1C(=O)O [alisertib]
Summary of the method: as §1

[7] = compound: COc1cc2nc(-c3cc(F)ccc3O)nc(N[C@@H]3CNC[C@H]3C(C)(C)O)c2cc1OC
Summary of the method: as §1

gefitinib = compound: COc1cc2ncnc(Nc3ccc(F)c(Cl)c3)c2cc1OCCCN1CCOCC1 [gefitinib]
Summary of the method: as §1

vemurafenib = compound: CCCS(=O)(=O)Nc1ccc(F)c(C(=O)c2c[nH]c3ncc(-c4ccc(Cl)cc4)cc23)c1F [vemurafenib]
Summary of the method: as §1

defactinib = compound: CNC(=O)c1ccc(Nc2ncc(C(F)(F)F)c(NCc3nccnc3N(C)S(C)(=O)=O)n2)cc1 [defactinib]
Summary of the method: as §1

[8] = compound: CCn1cc(-c2ccnc3[nH]c(-c4cccc(CN(C)C)c4)cc23)c(-c2ccc(NC(=O)N(C)C)cc2)n1
Summary of the method: as §1

[9] = compound: CN1CCC(CNc2ccc3ncc(-c4cccc(OC(F)(F)F)c4)n3n2)CC1
Summary of the method: as §1

alvocidib = compound: CN1CC[C@H](c2c(O)cc(O)c3c(=O)cc(-c4ccccc4Cl)oc23)[C@H](O)C1 [alvocidib]
Summary of the method: as §1

sotrastaurin = compound: CN1CCN(c2nc(C3=C(c4c[nH]c5ccccc45)C(=O)NC3=O)c3ccccc3n2)CC1 [sotrastaurin]
Summary of the method: as §1

Measured: log2 fold change

GRM5 (UniProt P41594)
inactive: [1] -0.048 | barasertib 0.21 | [2] 0.146 | volasertib 0.105 | [3] -0.206 | saracatinib -0.053 | Tubastatin A 0.069 | [4] -0.001 | [5] 0.039 | encorafenib 0.012 | [6] -0.066 | alisertib 0.006 | [7] 0.012 | gefitinib -0.129

GRK5 (UniProt P34947)
inactive: vemurafenib 0.049 | [4] 0.066 | defactinib -0.008 | alisertib -0.041 | gefitinib 0.141

HABP4 (UniProt Q5JVS0)
inactive: barasertib 0.055

GYPA, A0A2R8Y7F9
inactive: barasertib 0.066 | [8] -0.812 | [9] 0.25 | alvocidib -0.218

HAGH isoform 2 (UniProt Q16775)
inactive: [1] 0.008 | volasertib 0.196 | [3] -0.055 | saracatinib -0.077 | sotrastaurin 0.045 | Tubastatin A 0.147 | [4] 0.124 | [5] 0.1 | [7] -0.244

H1-0 (UniProt P07305)
inactive: saracatinib -0.108 | sotrastaurin -0.006 | [5] 0.034

GPT2 (UniProt Q8TD30)
inactive: vemurafenib 0.02 | [2] 0.058 | [3] -0.199 | saracatinib -0.058 | sotrastaurin -0.004 | Tubastatin A 0.079 | [4] 0.09 | defactinib 0.121 | [5] 0.031 | encorafenib -0.171 | [6] 0.031

GRN (UniProt P28799)
inactive: [1] 0.064 | [2] 0.175 | volasertib 0.091 | [3] 0.065 | [8] 0.078 | [9] 0.123 | saracatinib -0.056 | sotrastaurin 0.089 | alvocidib -0.016 | Tubastatin A 0.093 | [4] 0.034 | [5] -0.015 | encorafenib 0.107 | [6] -0.103 | [7] 0.178

GRIPAP1 isoform 2 (UniProt Q4V328)
inactive: sotrastaurin -0.072

H3C1 (UniProt P68431)
inactive: barasertib -0.092

5 neighbouring records from above, quoted:
HAGH isoform 2 (UniProt Q16775)
inactive: [1] 0.008 | volasertib 0.196 | [3] -0.055 | saracatinib -0.077 | sotrastaurin 0.045 | Tubastatin A 0.147 | [4] 0.124 | [5] 0.1 | [7] -0.244

H1-0 (UniProt P07305)
inactive: saracatinib -0.108 | sotrastaurin -0.006 | [5] 0.034

GPT2 (UniProt Q8TD30)
inactive: vemurafenib 0.02 | [2] 0.058 | [3] -0.199 | saracatinib -0.058 | sotrastaurin -0.004 | Tubastatin A 0.079 | [4] 0.09 | defactinib 0.121 | [5] 0.031 | encorafenib -0.171 | [6] 0.031

GRN (UniProt P28799)
inactive: [1] 0.064 | [2] 0.175 | volasertib 0.091 | [3] 0.065 | [8] 0.078 | [9] 0.123 | saracatinib -0.056 | sotrastaurin 0.089 | alvocidib -0.016 | Tubastatin A 0.093 | [4] 0.034 | [5] -0.015 | encorafenib 0.107 | [6] -0.103 | [7] 0.178

GRIPAP1 isoform 2 (UniProt Q4V328)
inactive: sotrastaurin -0.072

The list continues.

GUCD1 isoform 3 (UniProt Q96NT3)
inactive: [1] -0.005 | volasertib -0.005 | [3] 0.143 | saracatinib 0.034 | sotrastaurin -0.113 | Tubastatin A -0.018 | [4] -0.024 | [5] -0.096 | [7] 0.007

HBZ, A0A494C057
inactive: vemurafenib 0.01 | [1] -0.016 | barasertib 0.388 | volasertib -0.011 | [3] -0.158 | [8] 1.62 | [9] -0.16 | alvocidib 0.045 | Tubastatin A 0.007 | defactinib -0.045 | alisertib 0.005 | [7] 0.034 | gefitinib -0.127

HDAC3 (UniProt E7ESJ6)
inactive: [1] 0.031 | volasertib -0.16 | [7] -0.005

HCFC1 (UniProt P51610)
inactive: vemurafenib -0.047 | [1] 0.086 | barasertib -0.024 | volasertib -0.014 | [3] -0.138 | [8] -0.131 | [9] 0.14 | sotrastaurin 0.067 | alvocidib -0.261 | Tubastatin A 0.137 | [4] 0.107 | defactinib -0.134 | alisertib 0.165 | [7] -0.048 | gefitinib -0.52

HAL (UniProt P42357)
inactive: [1] -0.12 | [2] 0.031 | volasertib 0.051 | [3] 0.613 | [8] 0.029 | [9] 0.043 | saracatinib -0.244 | sotrastaurin 0.011 | alvocidib 0.13 | Tubastatin A 0.169 | [4] -0.107 | [5] -0.226 | encorafenib -0.121 | [6] 0.301 | [7] -0.032

H3-2 (UniProt Q5TEC6)
inactive: barasertib -0.026 | [2] -0.057 | [3] -0.086 | saracatinib -0.104 | sotrastaurin 0.054 | Tubastatin A 0.197 | [5] 0.251 | encorafenib 0.117 | [6] -0.056

GULP1 (UniProt Q9UBP9)
inactive: vemurafenib 0.003 | barasertib -0.022 | [2] -0.047 | [3] 0.077 | [8] -0.01 | [9] -0.02 | saracatinib 0.03 | sotrastaurin 0.032 | alvocidib 0.042 | Tubastatin A -0.153 | [4] -0.057 | defactinib 0.013 | [5] -0.031 | encorafenib 0.067 | [6] -0.161 | alisertib 0.024 | gefitinib -0.093

GRAMD1A (UniProt Q96CP6)
inactive: sotrastaurin 0.109 | [4] 0.157

H6PD (UniProt O95479)
inactive: [1] 0.077 | barasertib 0.047 | [2] -0.068 | volasertib 0 | [3] 0.069 | [8] 0.004 | [9] -0.001 | saracatinib -0.145 | sotrastaurin -0.173 | alvocidib -0.026 | Tubastatin A 0.032 | [4] 0.047 | [5] -0.027 | encorafenib -0.134 | [6] -0.064 | alisertib -0.132 | [7] 0.013 | gefitinib -0.168

HCFC2 (UniProt Q9Y5Z7)
inactive: barasertib 0.06 | sotrastaurin 0.161

HBD (UniProt E9PEW8)
inactive: vemurafenib 0.066 | [1] -0.021 | volasertib 0.076 | [8] 1.2 | [9] -0.002 | sotrastaurin 0.064 | alvocidib -0.006 | defactinib -0.006 | [7] 0.001

GPSM3 (UniProt Q9Y4H4)
inactive: [1] -0.028 | volasertib 0.004 | [3] -0.085 | [8] -0.189 | [9] -0.064 | saracatinib 0.045 | sotrastaurin 0.025 | alvocidib -0.021 | Tubastatin A 0.148 | [4] 0.046 | [5] -0.068 | alisertib 0.345 | [7] 0.166 | gefitinib 0.036

H3-3A (UniProt P84243)
inactive: vemurafenib 0.027 | [1] 0.015 | barasertib 0.067 | [2] -0.017 | volasertib -0.006 | [8] 0.027 | [9] -0.025 | sotrastaurin -0.028 | alvocidib 0.021 | [4] 0.063 | defactinib -0.04 | encorafenib 0.132 | [6] -0.034 | [7] -0.032

GSR isoform 5 (UniProt P00390)
inactive: vemurafenib 0.035 | [1] 0.038 | barasertib -0.043 | volasertib 0.103 | [3] -0.068 | [8] -0.755 | [9] 0.178 | saracatinib 0.033 | sotrastaurin -0.05 | alvocidib -0.241 | Tubastatin A 0.073 | [4] 0.079 | defactinib 0.032 | [5] 0.325 | [7] 0.134

GSTO1 (UniProt Q5TA02)
inactive: [1] 0.014 | volasertib -0.055 | alisertib 0 | [7] 0.122 | gefitinib -0.121

GTF2H2C (UniProt Q6P1K8)
inactive: [2] 0.228 | [3] -0.153 | saracatinib -0.057 | sotrastaurin 0.062 | Tubastatin A -0.042 | [5] 0.083 | encorafenib -0.11 | [6] -0.067

HACD2 (UniProt Q6Y1H2)
inactive: [1] 0.035 | barasertib 0.116 | volasertib -0.367 | [3] 0.059 | Tubastatin A -0.205 | [4] -0.074 | [7] 0.259
